Results: publication PMC13191473
No constants are given. Whether binding was seen depends on the method and setting. Binding seen in cells or lysates may run through a third protein. Some results given as binding are weak or reduced against the parent protein; the word gives no strength.

Target: T1, AXL (mouse (endogenous in lung tissue)) (UniProt Q00993)
T1 sequence: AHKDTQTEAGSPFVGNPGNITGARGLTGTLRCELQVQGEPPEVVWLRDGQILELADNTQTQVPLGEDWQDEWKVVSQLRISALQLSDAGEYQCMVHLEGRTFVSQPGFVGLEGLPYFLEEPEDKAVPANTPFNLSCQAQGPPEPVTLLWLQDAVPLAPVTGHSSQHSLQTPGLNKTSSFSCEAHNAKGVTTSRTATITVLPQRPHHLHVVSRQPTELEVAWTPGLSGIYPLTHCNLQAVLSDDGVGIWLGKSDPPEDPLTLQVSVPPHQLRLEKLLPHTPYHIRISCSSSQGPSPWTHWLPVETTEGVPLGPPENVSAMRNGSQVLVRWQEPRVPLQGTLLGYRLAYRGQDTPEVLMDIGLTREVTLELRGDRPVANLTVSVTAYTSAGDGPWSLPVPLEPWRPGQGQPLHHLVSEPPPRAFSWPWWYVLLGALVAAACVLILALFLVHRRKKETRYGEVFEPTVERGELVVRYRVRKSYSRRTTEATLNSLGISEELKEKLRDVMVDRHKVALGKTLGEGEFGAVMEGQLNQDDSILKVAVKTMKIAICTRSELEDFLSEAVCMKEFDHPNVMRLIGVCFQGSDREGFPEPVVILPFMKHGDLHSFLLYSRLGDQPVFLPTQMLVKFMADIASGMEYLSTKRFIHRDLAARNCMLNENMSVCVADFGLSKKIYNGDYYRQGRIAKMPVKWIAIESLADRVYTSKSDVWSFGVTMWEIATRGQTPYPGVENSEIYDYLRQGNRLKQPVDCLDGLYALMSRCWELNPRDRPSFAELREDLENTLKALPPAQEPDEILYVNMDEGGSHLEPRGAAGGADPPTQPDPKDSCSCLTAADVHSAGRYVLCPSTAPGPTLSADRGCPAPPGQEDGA
Assay: co-IP; Lung tissue lysate (RIPA, protease inhibitors) from vehicle- or rPROS1-treated mice (2 μg/mouse/day for 4 days); precleared with Dynabeads protein G; anti-AXL antibody or IgG with Dynabeads protein G overnight at 4°C; immunoblots for Gab1, p85 and AXL

binding: binds
B1: Gab1 (protein, UniProt Q9QYY0 1-695)
chain: MSGGEVVCSGWLRKSPPEKKLKRYAWKRRWFVLRSGRLTGDPDVLEYYKNDHAKKPIRIIDLNLCQQVDAGLTFNKKEFENSYIFDINTIDRIFYLVADSEEDMNKWVRCICDICGFNPTEEDPVKPLTGSSQAPVDSPFAISTAPASSQMEASSVALPPPYQVISLPPHPDTLGLQDDPQDYLLLINCQSKKPEPNRTLFDSAKPTFSETDCNDNVPSHQTPASSQSKHGMNGFFQQQMMYDCPPSRLTSVSGESSLYNLPRSYSHDVLPKESPSSTEADGELYTFNTPSGTAGVETQMRHVSISYDIPPTPGNTYQIPRTFPESTLGQSSKLDTIPDIPPPRPPKPHPTHDRSPVETCGVPRTASDTDSSYCIPPPAGMTPSRSNTISTVDLNKLRKDASSQDCYDIPRTFPSDRSSSLEGFHSQYKIKSVLTAGGVSGEELDENYVPMNPNSPPRQHSGSFTEPIQEPNYVPMTPGTFDFSSFGMQVPPPAHMGFRSSPKTPPRRPVPVADCEPPPVDRNLKPDRKVKPAPLDIKPLSEWEELQAPVRSPITRSFARDSSRFPMSPRPDSVHSTTSSSDSHDSEENYVPMNPNLSGEDPNLFASNSLDGGSSPMNKPKGDKQVEYLDLDLDSGKSTPPRKQKSSGSGSSMADERVDYVVVDQQKTLALKSTREAWTDGRQSTESETPTKNVK
